Experimental data reported in PubChem BioAssay AID2685 (National Center for Advancing Translational Sciences (NCATS), 2010).
Among all 320,000 compounds or so, about 2,100 (0.66%) were called active. The shares of active, inactive and inconclusive entries below differ from those in the screen. Calls come from the whole dose curve; as a rule, active = well fitted inhibition curve with a large enough effect in the signal ratio, with a control signal flat (not every such curve was filed as active); inconclusive = small, poorly fitted or top-dose-only effect, or effect the other way, or a change in a side signal; inactive = flat fitted curve, though single readings scatter; the % refers to the signal ratio. Where the call is inconclusive, the potency comes from a doubtful curve fit.

assay: qHTS Assay for Lipid Storage Modulators in Drosophila S3 Cells; details: BODIPY lipid droplet fluorescence, 18-24 h, cells fed with added oleic acid; lipid storage change, negative = inhibition: at 46.1 µM (top of the series) unless noted
Outline: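 Laser-scanning cytometry quantifies lipid droplet accumulation (500–530 nm total intensity; droplet/cell object ratio) in oleic acid-fed (400 uM added) Drosophila S3 cells treated with a concentration series. 20 uM Triacsin C defined 100% inhibition.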
% is set by controls: 0 for no effect and ±100 for the full control effect; potency is the fitted concentration of half-maximal effect.

Row | Compound | lipid storage change, negative = inhibition | Potency
1 | COC(=O)c1cccc(COC(=O)CNC(=O)c2ccco2)c1 | inconclusive: -1.67% | 
2 | O=C(CCNC(=O)c1ccccc1Cl)NC1=NCCS1 | inconclusive: 3.18% | 
3 | COc1ccc(S(=O)(=O)N2CCOCC2)cc1NC(=O)Cc1ccc2c(c1)OCCO2 |  | inconclusive: 29.1 µM [falling, single point]
4 | NC(=O)CSc1oc(-c2ccco2)nc1S(=O)(=O)c1ccc(Cl)cc1 | inconclusive: 37.4% | 
5 | CCCOc1ccc(N2C(=O)CC(N(Cc3ccc(S(N)(=O)=O)cc3)C(=O)CC)C2=O)cc1 (stereo not given) | inconclusive: -20.5% | 
6 | COc1ccc(NC(=O)c2ccc(Cl)nc2)cc1S(=O)(=O)N1CCCCC1 | inconclusive: -40.8% | 
7 | COc1ccccc1N1C(=O)c2cccc3c(N(C)CCO)ccc(c23)C1=O | inconclusive: -41.5% | 
8 | O=C(NC(NNc1ccc([N+](=O)[O-])cc1)(C(F)(F)F)C(F)(F)F)c1ccc(F)cc1 | inconclusive: 34.1% | 
9 | c1ccc(-c2nc(-c3cccnc3)n[nH]2)cc1 | inconclusive: 14.6% | 
10 | O=c1c2ccccc2cnn1Cc1n[nH]c(=S)n1-c1cc(Cl)cc(Cl)c1 |  | inconclusive: 6.51 µM [falling, single point]
11 | O=C(O)c1ccc(Sc2ccccn2)c([N+](=O)[O-])c1 |  | inconclusive: 6.51 µM [falling, single point]
12 | CCOC(=O)[C@@H](CCc1ccccc1)N[C@H](C)C(=O)N1[C@H](C(=O)O)C[C@@H]2CCC[C@@H]21 | inconclusive: -1.83% | 
13 | COc1cccc(N2CCN(CC(=O)NC(=O)NC3CCCCC3)CC2)c1 | inconclusive: -36% [at 0.0737 µM] | 
14 | O=C(NCCN1CCOCC1)c1cc(-c2cccc(Cl)c2)on1 |  | inconclusive: 25.9 µM [activator, single point]
15 | CC(C)[C@H](CO)Nc1nc(Nc2ccc(Cl)c(C(=O)O)c2)c2ncn(C(C)C)c2n1 | inconclusive: -13.9% | 
16 | Cc1cc(Cl)n2nc(C)c(-c3ccc(Cl)cc3)c2n1 | inconclusive: 1.36% | 
17 | Cc1cnc(N2C(=O)c3ccc([N+](=O)[O-])cc3C2=O)s1 | inconclusive: -31.4% | 
18 | CCN(CC)S(=O)(=O)c1ccc(N2CCOCC2)c(NC(=O)COc2ccc(OC)cc2)c1 | inconclusive: -42.7% | 
19 | CCc1nnc(NC(=O)Cc2ccc(Br)cc2)s1 | inconclusive: 4.01% | 
20 | N=C1/C(=C\c2ccc(-c3cccc(Cl)c3)o2)C(=O)N=C2SC=C(c3ccccc3)N12 | inactive | 
21 | COc1ccc([C@]23Cc4cc(C#N)ccc4C(O2)c2c(c4ccc(OC)cc4oc2=O)O3)cc1 | inconclusive: 21.8% [at 9.22 µM] | 
22 | COc1cc(OC)c(OC)cc1CNCCNC(=O)c1ccco1 | inconclusive: 76% | 
23 | COc1ccc(C(=O)Nc2nc(-c3ccccc3)c(C(C)=O)s2)c(OC)c1 | inactive | 
24 | O=[N+]([O-])c1ccc(O)c(C=Nc2ccc3oc(Cc4ccc(Cl)cc4)nc3c2)c1 | inconclusive: -17.6% | 
25 | CCOC(=O)N1CCC(NC(=O)CCC(=O)c2ccccc2)CC1 | inconclusive: -64% | 

From no. 14 up to 16, copied from above:
Row | Compound | lipid storage change, negative = inhibition | Potency
14 | O=C(NCCN1CCOCC1)c1cc(-c2cccc(Cl)c2)on1 |  | inconclusive: 25.9 µM [activator, single point]
15 | CC(C)[C@H](CO)Nc1nc(Nc2ccc(Cl)c(C(=O)O)c2)c2ncn(C(C)C)c2n1 | inconclusive: -13.9% | 
16 | Cc1cc(Cl)n2nc(C)c(-c3ccc(Cl)cc3)c2n1 | inconclusive: 1.36% | 

Taken from above.
Cc1cc(Cl)n2nc(C)c(-c3ccc(Cl)cc3)c2n1 | lipid storage change, negative = inhibition: inconclusive: 1.36%
COc1ccc(NC(=O)c2ccc(Cl)nc2)cc1S(=O)(=O)N1CCCCC1 | lipid storage change, negative = inhibition: inconclusive: -40.8%

Continuation.

Row | Compound | lipid storage change, negative = inhibition | Potency
26 | COc1ccccc1C(=O)Nc1cccc(NC(C)=O)c1 |  | inconclusive: 4.61 µM [activator, full curve]
27 | COc1ccc(NC(=O)CSc2nnc(-c3ccco3)n2N)cc1Cl | inconclusive: 48.6% | 
28 | COc1cc2nc(COc3ccc(C#N)cc3)n(CC#N)c(=O)c2cc1OC |  | inconclusive: 0.366 µM [activator, full curve, poor fit]
29 | COc1ccc(C2=NOC(C(=O)N3CCCc4ccccc43)C2)cc1 (stereo not given) | inconclusive: -120% | 
30 | COc1ccc(CN(CCCN2CCOCC2)C(=O)Nc2cccc(Cl)c2)cc1OC |  | inconclusive: 25.9 µM [activator, partial curve]
31 | O=C(NCc1cccs1)C1CCN(S(=O)(=O)c2cccc3cccnc23)CC1 | inconclusive: 25% [at 9.22 µM] | 
32 | CCOC(=O)N1CCC(N(CCN(C)C)C(=S)Nc2ccccc2OCC)CC1 | inconclusive: 14.1% | 
33 | Cc1ccc(S(=O)(=O)N2CCCCC2)cc1NC(=O)CNC(C)c1ccc(Cl)c(Cl)c1 (stereo not given) |  | inconclusive: 29.1 µM [falling, single point]
34 | CC(=O)c1cccc(NC(=O)CNC(=O)Cc2ccccc2)c1 | inconclusive: 23.4% | 
35 | CCOC(=O)CSC1=C(C#N)C(c2ccc(Cl)cc2)CC(=O)N1 (stereo not given) |  | inconclusive: 29.1 µM [activator, partial curve, poor fit]
36 | CCN(CC)CCCNC(=O)c1cn(CC)c2ccc(S(=O)(=O)N(C)C3CCCCC3)cc2c1=O |  | inconclusive: 29.1 µM [falling, single point]
37 | CC(C)c1nc(N2CCN(C(=O)c3ccco3)CC2)c(C#N)c2c1COC(C)(C)C2 |  | inconclusive: 29.1 µM [activator, single point]
38 | COCCSc1nnc(NS(=O)(=O)c2ccccc2)s1 | inconclusive: 6.17% | 
39 | CCOc1ccc(Oc2c(/C=N/NC(=O)COc3ccccc3OC)c(C)nn2-c2ccccc2)cc1 | inconclusive: 36.1% | 
40 | COc1cccc(CN(C)C(=O)CCNC(=O)c2ccco2)c1 | inconclusive: -16.9% | 
41 | O=C(Nc1cccc(NC(=O)c2cccs2)c1)c1ccc2c(c1)OCO2 |  | inconclusive: 1.3 µM [rising, full curve, poor fit]
42 | Cc1cccc(S(=O)(=O)Nc2nc3ccccc3nc2OC(C)C)c1 |  | inconclusive: 5.8 µM [activator, partial curve]
43 | CCCCNC(=O)C(C#N)c1nc2ccccc2nc1N1CCCC1 (stereo not given) |  | inconclusive: 1.46 µM [rising, partial curve]
44 | CCN(C(=O)c1ccc(C)c(Br)c1)c1ccccc1 | inconclusive: 2.58% | 
45 | CCCCn1nnnc1NCc1cc(Cl)c(OC)c(OC)c1 | inconclusive: 108% | 
46 | O=C(NCCO)c1cc2ccccc2c(=O)s1 | inconclusive: -24.2% | 
47 | CC(=O)Cc1cc(=O)c2c(C)cc(O)c(C3OC(CO)C(O)C(O)C3O)c2o1 (stereo not given) | inactive | 
48 | O=C(CSCCc1ccccn1)Nc1cccnc1Cl | inconclusive: -24% | 
49 | Cc1ccc(Nc2nnc(SCC(=O)c3ccc(Br)s3)s2)c(C)c1 | inconclusive: 29.9% | 
50 | COc1cc(C(F)(F)F)ccc1C(=O)NCCc1ccco1 | inconclusive: -58.9% | 

Row | Compound | lipid storage change, negative = inhibition | Potency
51 | O=C(c1cnn2c(C(F)(F)F)cc(-c3ccc(Br)cc3)nc12)N1CCOCC1 | inconclusive: -37.4% | 
52 | CC(C)n1cc(C(=O)N2CCCC(N3CCN(c4cccc(Cl)c4)CC3)C2)cn1 (stereo not given) |  | inconclusive: 0.461 µM [falling, full curve]
53 | C/C(=C\c1ccccc1)CN1CCN(Cc2ccc(C)o2)C(CCO)C1 (stereo not given) |  | inconclusive: 29.1 µM [activator, single point]
54 | CC(Oc1ccccc1)C(=O)Nc1ccc(C(N)=O)cc1 (stereo not given) |  | inconclusive: 0.13 µM [falling, full curve, poor fit]
55 | O=C(CN1CCOCC1)Nc1ccccc1C(=O)Nc1ccccc1 | inconclusive: 275% | 
56 | C=CCn1c(SCC(=O)Nc2ccc(NC(=O)c3ccco3)c(OC)c2)nnc1-c1ccncc1 | inconclusive: 15.4% | 
57 | CN(C)C(CNC(=O)c1ccc2nc[nH]c2c1)c1ccccc1 (stereo not given) | inconclusive: 2.62% | 
58 | COCC(=O)NC1CC2CCCC(C1)N2Cc1ccccc1 (stereo not given) | inconclusive: -29.3% | 
59 | COc1ccccc1-c1ccc2nnc(SC)n2n1 | inconclusive: -7.11% | 
60 | CCn1c(=O)c(C(=O)NNC(=O)c2ccccc2F)c(O)c2ccccc21 | inconclusive: -161% | 
61 | NC(=O)c1sc2nc3c(c(-c4ccco4)c2c1N)CCCC3 | inconclusive: 29% | 
62 | COc1cc(C(=O)Nc2cccc(NC(=O)c3ccccc3)c2)cc(OC)c1OC | inconclusive: -21.6% | 
63 | C/C(=N\Nc1cc(-c2ccccc2)nc(-c2ccccc2)n1)c1ccc(O)c(C)c1 |  | inconclusive: 29.1 µM [falling, single point]
64 | O=C(Nc1ccc(S(=O)(=O)N2CCN(Cc3ccccc3)CC2)cc1)c1cnccn1 | inconclusive: 25.1% | 
65 | Cc1cccc(C(=O)Nc2cccc(Br)c2)c1[N+](=O)[O-] | inconclusive: 12.3% | 
66 | CCOc1ccccc1N(C)C(=O)C1CCN(S(=O)(=O)c2cccc3nonc23)CC1 |  | inconclusive: 23.1 µM [activator, single point]
67 | CC(C)(C)c1ccc(C(=O)Nc2nnc(SCC(=O)NCC3CCCO3)s2)cc1 (stereo not given) | inconclusive: -100% | 
68 | Cc1ccc(NC(=O)CSc2nnc(CNC(=O)C34CC5CC(CC(C5)C3)C4)n2-c2ccc(F)cc2)cc1 |  | inconclusive: 16.4 µM [cytotoxic, single point]
69 | CCC(=O)NNC(=O)c1cc(COc2cc(Cl)cc(Cl)c2)on1 |  | inconclusive: 20.6 µM [rising, single point]
70 | Cc1cccc(OCC(=O)Nc2ccccc2C(=O)N2CCOCC2)c1 | inconclusive: -2.77% | 
71 | COCCCN1C(=O)/C(=C/c2ccc(CNS(=O)(=O)c3ccccc3)o2)C(C(=O)OC)=C1C | inconclusive: -21.8% [at 9.22 µM] | 
72 | Cc1ccc(S(=O)(=O)NC2CC(=O)N(c3ccc4c(c3)OCCO4)C2)cc1 (stereo not given) |  | inconclusive: 0.461 µM [activator, partial curve, poor fit]
73 | Cc1ccc(NC(=O)CN2C(=O)NC(C)(c3ccc(Cl)cc3)C2=O)cc1S(=O)(=O)N1CCOCC1 (stereo not given) | inconclusive: -17.8% | 
74 | CCN(C(=O)c1ccc(S(=O)(=O)N2CCCC2)cc1)C1CCS(=O)(=O)C1 (stereo not given) | inconclusive: -11.5% | 
75 | COc1ccc(S(=O)(=O)Cc2ccc(C(=O)NCC(OC)OC)o2)cc1 | inconclusive: -4.94% | 
